These are yes or no findings as the source states them, for the method shown. Some binding calls cover weakened binding; strength is not graded here. Where a sequence is shown, tags or fusion partners need not be part of it. One block for each binder: values may come before it.
Assays:
[1] = target: T1, BD-Upf1 N-terminus (1–230) (S. cerevisiae) (UniProt P30771); test: two-hybrid; yeast two-hybrid, β-galactosidase plate assay; AD and BD fusions; for the point mutants: mating of MATa (yRP2094) and MATα (yRP2093) strains and selection of diploids on drop-out media
T1 sequence: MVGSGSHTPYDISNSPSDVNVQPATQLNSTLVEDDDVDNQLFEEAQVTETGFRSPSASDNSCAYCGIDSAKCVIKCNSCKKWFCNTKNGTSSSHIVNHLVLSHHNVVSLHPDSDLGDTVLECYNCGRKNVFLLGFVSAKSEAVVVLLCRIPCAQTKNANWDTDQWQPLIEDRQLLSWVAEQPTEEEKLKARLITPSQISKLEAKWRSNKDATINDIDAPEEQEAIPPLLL

[2] = target: T1, BD-Upf1 N-terminus (1–230) (S. cerevisiae); test: two-hybrid; yeast two-hybrid, β-galactosidase plate assay; one haploid strain transformed with both the AD and BD plasmids; deletion strains yRP2834 (edc3Δ), yRP2835 (upf2Δ), yRP2836 (pat1Δ)
[3] = target: T2, Upf1 full-length (tethered to the binding domain) (S. cerevisiae) (UniProt P30771); test: two-hybrid; yeast two-hybrid, β-galactosidase plate assay; AD and BD fusions; for the point mutants: mating of MATa (yRP2094) and MATα (yRP2093) strains and selection of diploids on drop-out media
T2 sequence: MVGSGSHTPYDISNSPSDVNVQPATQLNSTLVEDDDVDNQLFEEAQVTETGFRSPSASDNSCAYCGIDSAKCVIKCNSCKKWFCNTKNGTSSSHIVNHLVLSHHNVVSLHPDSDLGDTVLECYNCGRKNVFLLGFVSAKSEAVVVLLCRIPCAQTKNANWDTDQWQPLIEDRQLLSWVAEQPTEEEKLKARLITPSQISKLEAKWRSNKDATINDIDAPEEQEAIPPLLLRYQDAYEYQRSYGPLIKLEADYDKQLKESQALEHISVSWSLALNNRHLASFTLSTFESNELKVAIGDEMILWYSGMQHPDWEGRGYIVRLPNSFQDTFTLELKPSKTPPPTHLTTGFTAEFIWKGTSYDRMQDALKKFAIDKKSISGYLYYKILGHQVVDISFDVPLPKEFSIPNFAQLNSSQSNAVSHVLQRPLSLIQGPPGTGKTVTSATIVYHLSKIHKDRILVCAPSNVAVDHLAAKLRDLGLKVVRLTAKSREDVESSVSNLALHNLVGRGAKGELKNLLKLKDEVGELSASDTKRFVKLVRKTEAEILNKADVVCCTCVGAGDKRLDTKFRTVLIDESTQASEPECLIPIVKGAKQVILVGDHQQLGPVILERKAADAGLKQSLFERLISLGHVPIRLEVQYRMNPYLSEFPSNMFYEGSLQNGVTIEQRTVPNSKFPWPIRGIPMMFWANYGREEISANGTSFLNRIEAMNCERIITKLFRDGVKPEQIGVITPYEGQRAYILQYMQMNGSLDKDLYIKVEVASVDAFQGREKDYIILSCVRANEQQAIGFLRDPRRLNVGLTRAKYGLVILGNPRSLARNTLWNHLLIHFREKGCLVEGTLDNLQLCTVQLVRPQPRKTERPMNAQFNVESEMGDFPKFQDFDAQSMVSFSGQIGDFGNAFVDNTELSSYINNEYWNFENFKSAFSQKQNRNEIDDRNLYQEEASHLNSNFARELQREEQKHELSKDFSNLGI

binding [1]: no binding
B1: AD-Dcp2 (102–245) (domain or fragment, UniProt P53550 102-245)
chain: SIPVRGAAIFNENLSKILLVQGTESDSWSFPRGKISKDENDIDCCIREVKEEIGFDLTDYIDDNQFIERNIQGKNYKIFLISGVSEVFNFKPQVRNEIDKIEWFDFKKISKTMYKSNIKYYLINSMMRPLSMWLRHQRQIKNED

binding [2]: binds
binding [1]: binds
B2: AD-Edc3 Full-length (protein, UniProt P39998 1-551)
chain: MSQFVGFGVQVELKDGKLIQGKIAKATSKGLTLNDVQFGDGGKSQAFKVRASRLKDLKVLTVASQSGKRKQQRQQQQQNDYNQNRGEHIDWQDDDVSKIKQQEDFDFQRNLGMFNKKDVFAQLKQNDDILPENRLQGHNRKQTQLQQNNYQNDELVIPDAKKDSWNKISSRNEQSTHQSQPQQDAQDDLVLEDDEHEYDVDDIDDPKYLPITQSLNITHLIHSATNSPSINDKTKGTVINDKDQVLAKLGQMIISQSRSNSTSLPAANKQTTIRSKNTKQNIPMATPVQLLEMESITSEFFSINSAGLLENFAVNASFFLKQKLGGRARLRLQNSNPEPLVVILASDSNRSGAKALALGRHLCQTGHIRVITLFTCSQNELQDSMVKKQTDIYKKCGGKIVNSVSSLESAMETLNSPVEIVIDAMQGYDCTLSDLAGTSEVIESRIKSMISWCNKQRGSTKVWSLDIPNGFDAGSGMPDIFFSDRIEATGIICSGWPLIAINNLIANLPSLEDAVLIDIGIPQGAYSQRTSLRKFQNCDLFVTDGSLLLDL

binding [3]: no binding
B3: AD-Dcp2 (102–300) (domain or fragment, UniProt P53550 102-300)
chain: SIPVRGAAIFNENLSKILLVQGTESDSWSFPRGKISKDENDIDCCIREVKEEIGFDLTDYIDDNQFIERNIQGKNYKIFLISGVSEVFNFKPQVRNEIDKIEWFDFKKISKTMYKSNIKYYLINSMMRPLSMWLRHQRQIKNEDQLKSYAEEQLKLLLGITKEEQIDPGRELLNMLHTAVQANSNNNAVSNGQVPSSQE

Reference: article PMC3204985
